PubChem BioAssay AID1159578 – Peter MacCallum Cancer Centre, 2015
The whole screen tested about 18,000 reagents; this is a random part of them. In the full data, about 1,030 (5.7%) are marked active. 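Inactive calls also include pools with fewer than 3300 nuclei, whose migration was not assessed.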 Raw values are not corrected between plates. Reagent sequences are not shown.

Aim: 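Knock-downs that alter how fast lymphatic endothelial cells migrate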 (primary screen)
Cell system: human lymphatic endothelial cells
Reagents: siRNA pool against human genes, 40 nM
Duration: 48 h after transfection
Detection: 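High-content imaging of dye-stained cells in a scratch assay measures filled wound area and nuclei per well; duplicate means given as ratio to mock and robust z-score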
Scale: migration robust z-score: higher = faster migration into the scratch; migration relative to mock: higher = more scratch area covered than mock; nuclei per well: higher = more cells in the well
Rule for the call: 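Pools averaging fewer than 3300 nuclei are never called; remaining pools count as changed when migration robust z lies outside -2 to 2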
Calls: active = migration changed; inactive = no migration change, or too few cells

target | migration robust z-score | migration class with cell-count check | migration relative to mock | nuclei per well, duplicate mean | activity call
SLC22A23 | -0.6 | migration z between -2 and 2; enough cells | 0.73 | 6782 | inactive
MRGPRX2 | -0.78 | migration z between -2 and 2; enough cells | 0.66 | 6590 | inactive
MYADM | -0.98 | migration z between -2 and 2; enough cells | 0.63 | 4688 | inactive
CD248 | -0.51 | migration z between -2 and 2; enough cells | 0.76 | 5807 | inactive
GSS | -2.28 | migration z below -2; enough cells | 0.36 | 5097 | active
ARID4A | 1.43 | migration z between -2 and 2; enough cells | 1.08 | 5614 | inactive
PLD3 | 0.57 | migration z between -2 and 2; enough cells | 0.92 | 4580 | inactive
TRABD | -0.46 | migration z between -2 and 2; enough cells | 0.77 | 6663 | inactive
KXD1 | -0.75 | migration z between -2 and 2; enough cells | 0.69 | 6042 | inactive
APMAP | 1.06 | migration z between -2 and 2; enough cells | 1.16 | 5484 | inactive
ACADSB | -2.91 | under 3300 nuclei; migration not judged | 0.24 | 2710 | inactive
FAM181B | -0.5 | migration z between -2 and 2; enough cells | 0.76 | 6068 | inactive
AHR | 0.31 | migration z between -2 and 2; enough cells | 0.86 | 6545 | inactive
NSDHL | -0.78 | migration z between -2 and 2; enough cells | 0.66 | 5476 | inactive
SLC22A7 | -0.46 | migration z between -2 and 2; enough cells | 0.72 | 4833 | inactive
PODN | -0.34 | migration z between -2 and 2; enough cells | 0.8 | 5210 | inactive
TLX1NB | -0.69 | migration z between -2 and 2; enough cells | 0.7 | 4987 | inactive
AMOTL2 | 0.62 | migration z between -2 and 2; enough cells | 1.04 | 6496 | inactive
FAM107B | -1.14 | migration z between -2 and 2; enough cells | 0.59 | 6169 | inactive
EIF4A2 | -0.88 | migration z between -2 and 2; enough cells | 0.66 | 6555 | inactive
COX7C | -0.21 | migration z between -2 and 2; enough cells | 0.76 | 3982 | inactive
TBX20 | -0.54 | migration z between -2 and 2; enough cells | 0.74 | 5228 | inactive
ZNF548 | 0.42 | migration z between -2 and 2; enough cells | 0.99 | 5690 | inactive
KCND3 | -0.99 | migration z between -2 and 2; enough cells | 0.62 | 6350 | inactive
PSORS1C2 | -0.33 | migration z between -2 and 2; enough cells | 0.8 | 5601 | inactive
IL2RG | 0.91 | migration z between -2 and 2; enough cells | 0.98 | 5961 | inactive
RAB23 | 1.25 | migration z between -2 and 2; enough cells | 1.04 | 6283 | inactive
MAMDC2 | 1.71 | migration z between -2 and 2; enough cells | 1.33 | 5832 | inactive
SLC33A2 | -5.08 | under 3300 nuclei; migration not judged | -0.4 | 2748 | inactive
CCN1 | -1.2 | migration z between -2 and 2; enough cells | 0.57 | 5764 | inactive
OR2W3 | 0.88 | migration z between -2 and 2; enough cells | 1.12 | 5200 | inactive
JMJD7-PLA2G4B | 0.34 | migration z between -2 and 2; enough cells | 0.87 | 4896 | inactive
PDK2 | -1.17 | migration z between -2 and 2; enough cells | 0.58 | 4963 | inactive
ZNF483 | -0.21 | migration z between -2 and 2; enough cells | 0.83 | 4426 | inactive
ACTBL2 | -2.52 | migration z below -2; enough cells | 0.22 | 4240 | active
AGBL3 | -0.02 | migration z between -2 and 2; enough cells | 0.88 | 6094 | inactive
OR8G5 | 0.77 | migration z between -2 and 2; enough cells | 1.08 | 6467 | inactive
TM2D3 | -0.77 | migration z between -2 and 2; enough cells | 0.68 | 6096 | inactive
SLC17A4 | 0.64 | migration z between -2 and 2; enough cells | 0.93 | 5216 | inactive
GPKOW | 0.4 | migration z between -2 and 2; enough cells | 0.99 | 5909 | inactive
TBL1Y | -1.15 | migration z between -2 and 2; enough cells | 0.58 | 5584 | inactive
ZNF354A | 0.62 | migration z between -2 and 2; enough cells | 0.92 | 6268 | inactive
TEAD2 | 0.39 | migration z between -2 and 2; enough cells | 0.99 | 5771 | inactive
CDC42SE1 | -0.94 | migration z between -2 and 2; enough cells | 0.64 | 6656 | inactive
SYCN | 1.66 | migration z between -2 and 2; enough cells | 1.31 | 6458 | inactive
EP400 | -0.04 | migration z between -2 and 2; enough cells | 0.88 | 4582 | inactive
ZNF431 | 1.58 | migration z between -2 and 2; enough cells | 1.29 | 5953 | inactive
TMEM67 | -0.56 | migration z between -2 and 2; enough cells | 0.74 | 3914 | inactive
OR8K1 | -0.59 | migration z between -2 and 2; enough cells | 0.73 | 5108 | inactive
CRH | -0.26 | migration z between -2 and 2; enough cells | 0.76 | 4510 | inactive
SLITRK4 | 0.16 | migration z between -2 and 2; enough cells | 0.92 | 5883 | inactive
UBIAD1 | 1.03 | migration z between -2 and 2; enough cells | 1.16 | 5036 | inactive
GAST | -1.48 | migration z between -2 and 2; enough cells | 0.5 | 4858 | inactive
OR4N5 | -0.14 | migration z between -2 and 2; enough cells | 0.85 | 6954 | inactive
USP36 | -0.31 | migration z between -2 and 2; enough cells | 0.74 | 5539 | inactive
CEP135 | -1.27 | migration z between -2 and 2; enough cells | 0.55 | 5503 | inactive
DHRS4L1 | -0.02 | migration z between -2 and 2; enough cells | 0.88 | 5795 | inactive

Sorted by “migration relative to mock” (high to low): 8 of the entries above.
target | migration robust z-score | migration class with cell-count check | migration relative to mock | nuclei per well, duplicate mean | activity call
ARID4A | 1.43 | migration z between -2 and 2; enough cells | 1.08 | 5614 | inactive
PLD3 | 0.57 | migration z between -2 and 2; enough cells | 0.92 | 4580 | inactive
TRABD | -0.46 | migration z between -2 and 2; enough cells | 0.77 | 6663 | inactive
CD248 | -0.51 | migration z between -2 and 2; enough cells | 0.76 | 5807 | inactive
KXD1 | -0.75 | migration z between -2 and 2; enough cells | 0.69 | 6042 | inactive
MRGPRX2 | -0.78 | migration z between -2 and 2; enough cells | 0.66 | 6590 | inactive
MYADM | -0.98 | migration z between -2 and 2; enough cells | 0.63 | 4688 | inactive
GSS | -2.28 | migration z below -2; enough cells | 0.36 | 5097 | active
